Results reported in PMC10720265.
These are yes or no findings as the source states them, for the method shown. A result given as binding can be weak or reduced; the word gives no strength. For some assays here: Tags and fused reporters may be left off the sequences shown. For some assays here: Binding seen in cells or lysates may run through a third protein. Values belong to the molecule of their own block, whether it stands above or below them.

Chains of the proteins cited; added tags and fusions are not shown.
UniProt Q6NZY4: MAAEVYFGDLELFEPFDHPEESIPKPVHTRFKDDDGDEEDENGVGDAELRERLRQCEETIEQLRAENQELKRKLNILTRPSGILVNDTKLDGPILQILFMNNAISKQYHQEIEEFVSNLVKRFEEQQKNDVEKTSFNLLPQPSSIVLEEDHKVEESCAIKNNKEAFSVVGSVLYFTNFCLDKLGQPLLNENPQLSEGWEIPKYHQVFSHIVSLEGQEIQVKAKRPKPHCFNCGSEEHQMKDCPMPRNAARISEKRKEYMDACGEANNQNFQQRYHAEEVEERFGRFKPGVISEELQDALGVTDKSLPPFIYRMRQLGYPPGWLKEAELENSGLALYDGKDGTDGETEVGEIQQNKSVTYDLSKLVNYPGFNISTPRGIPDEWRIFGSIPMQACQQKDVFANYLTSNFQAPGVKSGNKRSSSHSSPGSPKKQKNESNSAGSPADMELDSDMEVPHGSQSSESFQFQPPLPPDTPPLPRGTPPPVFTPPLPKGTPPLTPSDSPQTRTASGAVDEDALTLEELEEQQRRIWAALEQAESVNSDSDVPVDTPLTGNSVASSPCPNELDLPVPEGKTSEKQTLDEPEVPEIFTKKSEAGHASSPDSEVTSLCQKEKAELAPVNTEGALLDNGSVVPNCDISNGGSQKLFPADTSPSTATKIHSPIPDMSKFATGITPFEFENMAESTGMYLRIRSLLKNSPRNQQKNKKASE

Key:
[1] = molecular target: MYC-tagged ZC3H18^MUT, point mutations in the acidic SLiM (human) (UniProt Q86VM9); assay: co-IP; MYC IP of MYC-tagged ZC3H18^WT or ZC3H18^MUT from HeLa lysates, untagged cells as control; western blot for ARS2, NCBP2, ZCCHC8, MTR4
[2] = molecular target: T1, ZC3H18^190-211(WT) (human) (UniProt Q86VM9); assay: pull-down; SLiM peptide fusion held on amylose resin; 10 or 30 μM of each protein; 20 mM HEPES/NaOH pH 7.5, 100 mM NaCl, 2 mM DTT, 0.01% Tween 20; 30 min on ice, resin 1 h at 4°C; Coomassie-stained SDS-PAGE; both purified
T1 sequence: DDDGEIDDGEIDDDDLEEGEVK

[3] = molecular target: T2, His-MBP-Z1^11-35(WT) (human) (UniProt O60293); assay: as above
T2 sequence: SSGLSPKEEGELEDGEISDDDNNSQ

MYC-ARS2 (human) = assay: co-IP; MYC IP of stably expressed MYC-ARS2 from HeLa lysates; cells treated with siLUC or siZC3H18, or with DOX-induced overexpression of Z1^1-209(WT); western blot

- binding [1]: binds
Molecule: ZCCHC8, endogenous in HeLa cells (from UniProt Q6NZY4 1-707)

- binding [2]: binds
- binding [3]: binds
Molecule: His-ARS2^147-871 (human) (domain or fragment)

Continued, molecule first:

B1: Z1^1-209(WT), MYC-tagged N-terminal fragment of human ZFC3H1 (domain or fragment, UniProt O60293 1-209)
chain: MATADTPAPASSGLSPKEEGELEDGEISDDDNNSQIRSRSSSSSSGGGLLPYPRRRPPHSARGGGSGGGGGSSSSSSSSQQQLRNFSRSRHASERGHLRGPSSYRPKEPFRSHPPSVRMPSSSLSESSPRPSFWERSHLALDRFRFRGRPYRGGSRWSRGRGVGERGGKPGCRPPLGGGAGSGFSSSQSWREPSPPRKSSKSFGRSPSR
- binding (MYC-ARS2 (human)): binds

B2: ZC3H18, endogenous in HeLa cells (protein, UniProt Q86VM9 1-953)
chain: MDVAESPERDPHSPEDEEQPQGLSDDDILRDSGSDQDLDGAGVRASDLEDEESAARGPSQEEEDNHSDEEDRASEPKSQDQDSEVNELSRGPTSSPCEEEGDEGEEDRTSDLRDEASSVTRELDEHELDYDEEVPEEPAPAVQEDEAEKAGAEDDEEKGEGTPREEGKAGVQSVGEKESLEAAKEKKKEDDDGEIDDGEIDDDDLEEGEVKDPSDRKVRPRPTCRFFMKGNCTWGMNCRFIHPGVNDKGNYSLITKADPFPPNGAPPLGPHPLMPANPWGGPVVDEILPPPPPEPPTESAWERGLRHAKEVLKKATIRKEQEPDFEEKRFTVTIGEDEREFDKENEVFRDWNSRIPRDVRDTVLEPYADPYYDYEIERFWRGGQYENFRVQYTETEPYHNYRERERERERENRQRERERERERDRERERRQRERERERERERDKERQRRKEEWERERAKRDEKDRQHRDRDREKEREKEKGKPKPRSPQPPSRQAEPPKKEAATTGPQVKRADEWKDPWRRSKSPKKKLGVSVSPSRARRRRKTSASSASASNSSRSSSRSSSYSGSGSSRSRSRSSSYSSYSSRSSRHSSFSGSRSRSRSFSSSPSPSPTPSPHRPSIRTKGEPAPPPGKAGEKSVKKPAPPPAPPQATKTTAPVPEPTKPGDPREARRKERPARTPPRRRTLSGSGSGSGSSYSGSSSRSRSLSVSSVSSVSSATSSSSSAHSVDSEDMYADLASPVSSASSRSPAPAQTRKEKGKSKKEDGVKEEKRKRDSSTQPPKSAKPPAGGKSSQQPSTPQQAPPGQPQQGTFVAHKEIKLTLLNKAADKGSRKRYEPSDKDRQSPPPAKRPNTSPDRGSRDRKSGGRLGSPKPERQRGQNSKAPAAPADRKRQLSPQSKSSSKVTSVPGKASDPGAASTKSGKASTLSRREELLKQLKAVEDAIARKRAKIPGKA
- binding (MYC-ARS2 (human)): binds
